Assay results taken from PubChem BioAssay AID720535 (National Center for Advancing Translational Sciences (NCATS), 2013).
Out of some 1,600 compounds screened, about 420 (26%) were called active. Inconclusive results, whose numbers are uncertain, are shown with a selection of clear calls. Calls follow the shape of the dose curve; as a rule, active = well fitted inhibition curve with a large enough effect; inconclusive = small, poorly fitted or top-dose-only effect; inactive = flat fitted curve, though single readings scatter. Where the call is inconclusive, the potency comes from a doubtful curve fit.

Experiment: qHTS for Inhibitors of TGF-b: Cytotox Counterscreen for Cherry Picks; also: nearly all actives have a fitted effect of over 70% in size
Conditions: HepG2 CAGA-GFP viability, ATP luminescence, 18 h, cells stimulated with TGF-beta, 500 pg/mL; series mostly up to 46.1 µM
Method in brief: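 Cytotoxicity is scored as %Activity, where no-cell media wells define complete killing and DMSO-treated cells define no toxicity. Luminescence from CellTiter-Glo after 18 h compound exposure in HepG2 CAGA-GFP cells with TGF-beta (500 pg/mL).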
Potency is read from the fitted curve at half-maximal effect.

SMILES	Potency
O=[N+]([O-])c1ccc(S(=O)(=O)c2cccc(C(F)(F)F)c2)nc1	active: 7.31 µM
CC1CCc2c(nc3ncnn3c2Nc2ccc(OC(F)(F)F)cc2)C1 (centres undefined)	inactive
COc1ccc(Nc2nnc(-c3ccc(N4CCOCC4)c([N+](=O)[O-])c3)c3ccccc23)cc1	inactive
O=C1C=CC2(C=C1)O[C@H](Cc1ccccc1)[C@@H](Cc1ccccc1)O2	active: 6.51 µM
O=C(C1=C[C@@H](C2CCCCC2)C[C@@H](OCc2ccc(CO)cc2)O1)N1CCN(Cc2ccc3c(c2)OCO3)CC1	inactive
O=C(CCC(=O)c1ccc(F)cc1)Nc1cccc(S(=O)(=O)Nc2cccc(Cl)c2)c1	inconclusive: 10.3 µM [inhibitor, partial curve]
COC(=O)c1ccc(Cn2c(C)c(C(=O)NCc3ccc(Cl)c(Cl)c3)sc2=O)o1	inactive
COc1cccc(/C=N/Nc2ccc([N+](=O)[O-])cn2)c1O	inconclusive: 2.06 µM [inhibitor, full curve]
COc1cc(/C=C(\C#N)c2nc3ccccc3[nH]2)cc(Br)c1OCc1ccccc1	inconclusive: 18.4 µM [inhibitor, single point]
Oc1ccccc1-c1nc(NCc2cccnc2)c2ccccc2n1	inconclusive: 23.1 µM [inhibitor, single point]
COc1cccc(Cl)c1NC(=O)N1CCN(c2cc(C)nc3ccccc23)CC1	inconclusive: 29.1 µM [inhibitor, single point]
CC1(Cc2cccc(C(F)(F)F)c2)C(=O)Nc2ccc(-c3ccc(F)c(Cl)c3)cc21 (centres undefined)	active: 18.4 µM
C[C@H](CO)N1C[C@H](C)[C@@H](CN(C)Cc2ccc(Oc3ccccc3)cc2)Oc2c(NC(=O)c3ccncc3)cccc2C1=O	inconclusive: 18.4 µM [inhibitor, single point]
C[C@H](NC(=O)c1nc[nH]c1C(=O)NCCCCCNC(=O)OC(C)(C)C)C(=O)OC(C)(C)C	inactive
Cc1ccc(NC(=O)c2nc[nH]c2C(=O)NCCCNC(=O)c2[nH]cnc2C(=O)Nc2ccc(C)cc2)cc1	inconclusive: 23.1 µM [inhibitor, single point]
CN(C)CCNC(=O)c1cccc2[nH]c(-c3ccncc3)nc12	active: 20.6 µM
CCCCCCN1C[C@H](n2cc(-c3ccc(F)cc3)nn2)[C@@H](O)C[C@@H]1c1ccc(Cl)cc1	inconclusive: 23.1 µM [inhibitor, single point]
CCc1nc2ccccc2c(C(=O)OCC(=O)Nc2cccc(S(=O)(=O)NC3=NCCCCC3)c2)c1C	inconclusive: 23.1 µM [inhibitor, single point]
Cc1cccc(C)c1-n1nnnc1C(c1cccs1)N1CCN(C/C=C/c2ccccc2)CC1 (centres undefined)	inactive
COC(C(=O)C(O)C(C)O)C1Cc2cc3cc(OC4CC(OC5CC(O)C(O)C(C)O5)C(O)C(C)O4)c(C)c(O)c3c(O)c2C(=O)C1OC1CC(OC2CC(OC3CC(O)C(OC)C(C)O3)C(O)C(C)O2)C(O)C(C)O1 (centres undefined)	active: 0.092 µM
CC(=NNC(=S)N1CCCCC1)c1ccccn1	inconclusive: 8.2 µM [inhibitor, partial curve, poor fit]
COc1cc(C=CC(=O)c2ccccc2)cc(OC)c1OC	inconclusive: 18.4 µM [inhibitor, single point]

SMILES	Potency
O=C(Cc1cccc(NC(=O)C2CCCN(C(=O)C3CCCCC3)C2)c1)Nc1cccc(C(=O)N2CCCC2)c1 (centres undefined)	inactive
CCOC(=O)c1ccc2c(c1)nc(C1CCN(S(=O)(=O)c3cccs3)CC1)n2CC	inconclusive: 10.3 µM [inhibitor, partial curve, poor fit]
COc1ccc(S(=O)(=O)n2nc(-c3ccc(Cl)cc3)cc2N)cc1	inconclusive: 9.2 µM [inhibitor, partial curve]
N#C/C(=C\c1ccc(Sc2nc3ccccc3[nH]2)o1)c1ccccc1	inconclusive: 13 µM [inhibitor, partial curve]
COc1ccc(-c2nn(-c3ccccc3)cc2C(=O)N2c3ccc(C)cc3C3CN(C)CCC32)cc1 (centres undefined)	inactive
O=C1C=C(NC2=CC3OC(c4ccccc4)OCC3OC2=O)CCC1 (centres undefined)	inconclusive: 23.1 µM [inhibitor, single point]
O=C(CCC(=O)N1CCN(S(=O)(=O)c2ccc3ccccc3c2)CC1)Nc1cc(Cl)cc(Cl)c1	inactive
COc1ccc(S(=O)(=O)Nc2ccc(F)c(F)c2)cc1Cl	inactive
COc1ccc(N2CCc3c(C)nc4c(OC)cccc4c32)cc1	inconclusive: 8.2 µM [inhibitor, partial curve]
CCCC(=O)NC(=S)Nc1cccc(Cl)c1N1CCCCC1	inconclusive: 9.2 µM [inhibitor, partial curve]
CC(NC(=O)C1CCN(CCOc2ccc(Cl)cc2)CC1)c1cccc2ccccc12 (centres undefined)	active: 18.4 µM
COc1cc(/C=C/C(=O)c2ccc3c(c2)OCCO3)cc(Br)c1OCC(=O)N(C)C	active: 3.26 µM
CCOC(=O)C1=CCN(S(=O)(=O)c2ccc(C)cc2)C1c1cccc(Cl)c1 (centres undefined)	inactive
CCC(C)Oc1cc(-c2ccnc(Nc3cccc(Cl)c3)n2)ccn1 (centres undefined)	inconclusive: 2.59 µM [inhibitor, full curve]
CCCCN(CC)C(=O)CSc1nc2n[nH]c(C)c2c(=N)n1-c1cccc(C)c1	inactive
O=S(=O)(NCC(Nc1ccccc1)c1ccccc1)c1ccc(Cl)cc1 (centres undefined)	inactive
O=C(Nc1ccc(F)cc1)c1nc(S(=O)(=O)Cc2ccccc2)ncc1Cl	active: 14.6 µM
CCSCCc1nnc(NC(=O)Nc2cccc(C(F)(F)F)c2)s1	inconclusive: 6.51 µM [inhibitor, full curve]
Cc1cccc(COCC(CC(C)C)N2CCN(C(=O)c3ccc(C(C)(C)C)cc3)CCC2=O)c1 (centres undefined)	inconclusive: 23.1 µM [inhibitor, single point]
Cc1ccc(NC(=S)NCCc2c[nH]c3ccccc23)c(C)c1	inactive
CCCc1cc(-c2n[nH]c(=S)n2CC)c2ccccc2n1	inactive
Oc1ccc(C[C@H]2CNC(=S)N2CC2CCCN2C[C@H](Cc2ccccc2)N2C[C@H](Cc3ccc(O)cc3)N(CC3CCCCC3)C2=S)cc1 (some centres undefined)	inconclusive: 18.4 µM [inhibitor, single point]

In another format: results already given

| SMILES | Potency |
| --- | --- |
| O=C1C=C(NC2=CC3OC(c4ccccc4)OCC3OC2=O)CCC1 (centres undefined) | inconclusive: 23.1 µM [inhibitor, single point] |
| COc1ccc(S(=O)(=O)Nc2ccc(F)c(F)c2)cc1Cl | inactive |
| COc1ccc(N2CCc3c(C)nc4c(OC)cccc4c32)cc1 | inconclusive: 8.2 µM [inhibitor, partial curve] |
| CCOC(=O)C1=CCN(S(=O)(=O)c2ccc(C)cc2)C1c1cccc(Cl)c1 (centres undefined) | inactive |
| O=S(=O)(NCC(Nc1ccccc1)c1ccccc1)c1ccc(Cl)cc1 (centres undefined) | inactive |
| CCSCCc1nnc(NC(=O)Nc2cccc(C(F)(F)F)c2)s1 | inconclusive: 6.51 µM [inhibitor, full curve] |
| Cc1cccc(COCC(CC(C)C)N2CCN(C(=O)c3ccc(C(C)(C)C)cc3)CCC2=O)c1 (centres undefined) | inconclusive: 23.1 µM [inhibitor, single point] |
| Cc1ccc(NC(=S)NCCc2c[nH]c3ccccc23)c(C)c1 | inactive |
